Test results taken from article doi:10.1101/2024.10.11.617944.
No constants are given. Whether binding was seen depends on the method and setting. Binding seen in cells or lysates may run through a third protein. Some entries that bind do so weakly or less than the wild type. Sequences can lack the tags named with a protein.

Protein sequences, listed by entry. Tags and fused reporters are not part of them.
UniProt Q9FLI3: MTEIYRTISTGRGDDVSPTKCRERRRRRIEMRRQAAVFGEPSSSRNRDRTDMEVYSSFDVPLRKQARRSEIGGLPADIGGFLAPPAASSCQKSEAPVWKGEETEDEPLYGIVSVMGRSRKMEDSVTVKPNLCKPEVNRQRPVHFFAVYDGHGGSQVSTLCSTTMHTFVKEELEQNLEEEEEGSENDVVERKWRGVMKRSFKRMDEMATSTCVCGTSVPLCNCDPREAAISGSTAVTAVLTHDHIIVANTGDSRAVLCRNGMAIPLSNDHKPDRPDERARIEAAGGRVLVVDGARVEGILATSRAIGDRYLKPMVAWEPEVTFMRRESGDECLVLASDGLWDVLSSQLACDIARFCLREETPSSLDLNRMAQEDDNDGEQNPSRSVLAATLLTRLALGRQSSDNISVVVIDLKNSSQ
UniProt Q39026: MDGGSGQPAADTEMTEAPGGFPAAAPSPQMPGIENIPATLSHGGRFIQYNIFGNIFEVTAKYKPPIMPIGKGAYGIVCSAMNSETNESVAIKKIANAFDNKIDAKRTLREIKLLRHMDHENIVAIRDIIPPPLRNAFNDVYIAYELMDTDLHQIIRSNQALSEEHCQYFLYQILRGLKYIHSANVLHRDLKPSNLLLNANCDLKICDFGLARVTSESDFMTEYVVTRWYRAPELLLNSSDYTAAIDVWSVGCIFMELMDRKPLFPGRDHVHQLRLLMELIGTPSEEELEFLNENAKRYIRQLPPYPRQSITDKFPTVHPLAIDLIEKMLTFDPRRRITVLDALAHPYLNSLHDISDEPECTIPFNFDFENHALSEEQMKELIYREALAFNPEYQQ

Columns and labels:
Experiment in all cases: split reporter
[1] = target: T1, MPK3, split YFP fusion (Arabidopsis thaliana), Q39023; conditions: remark: other sources report otherwise
T1 chain: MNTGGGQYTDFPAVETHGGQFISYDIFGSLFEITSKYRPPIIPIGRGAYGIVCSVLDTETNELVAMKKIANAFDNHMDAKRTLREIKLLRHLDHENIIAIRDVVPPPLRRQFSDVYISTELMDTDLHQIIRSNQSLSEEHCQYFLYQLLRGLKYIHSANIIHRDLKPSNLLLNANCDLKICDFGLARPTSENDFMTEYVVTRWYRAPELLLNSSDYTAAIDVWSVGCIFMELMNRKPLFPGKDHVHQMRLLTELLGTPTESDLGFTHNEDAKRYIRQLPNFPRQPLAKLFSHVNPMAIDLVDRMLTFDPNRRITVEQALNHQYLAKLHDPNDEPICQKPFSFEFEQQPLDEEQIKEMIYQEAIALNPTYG

[2] = target: AHG1, split YFP fusion (Arabidopsis thaliana) (UniProt Q9FLI3)
[3] = target: T2, AHG3, split YFP fusion (Arabidopsis thaliana) (UniProt P49598)
T2 sequence: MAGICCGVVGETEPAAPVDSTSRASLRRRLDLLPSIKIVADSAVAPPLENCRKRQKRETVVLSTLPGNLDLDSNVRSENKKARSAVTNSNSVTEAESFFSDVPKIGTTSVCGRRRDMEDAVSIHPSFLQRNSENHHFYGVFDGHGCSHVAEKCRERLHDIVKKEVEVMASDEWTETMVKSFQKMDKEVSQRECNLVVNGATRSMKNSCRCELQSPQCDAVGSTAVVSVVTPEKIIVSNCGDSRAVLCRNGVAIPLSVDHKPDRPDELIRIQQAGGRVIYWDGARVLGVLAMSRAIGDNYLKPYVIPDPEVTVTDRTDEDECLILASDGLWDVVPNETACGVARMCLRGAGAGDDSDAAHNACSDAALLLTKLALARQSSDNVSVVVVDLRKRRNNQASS

[4] = target: T3, GRF3 (14-3-3 psi), split YFP fusion (Arabidopsis thaliana) (UniProt P42644)
T3 sequence: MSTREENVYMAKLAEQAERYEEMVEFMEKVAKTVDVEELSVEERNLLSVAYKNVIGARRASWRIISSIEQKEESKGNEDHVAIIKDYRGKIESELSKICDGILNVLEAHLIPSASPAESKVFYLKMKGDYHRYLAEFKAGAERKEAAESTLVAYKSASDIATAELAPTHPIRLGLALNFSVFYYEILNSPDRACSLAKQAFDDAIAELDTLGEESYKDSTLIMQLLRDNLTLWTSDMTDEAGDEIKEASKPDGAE

[5] = target: T4, GRF4 (14-3-3 phi), split YFP fusions (Arabidopsis thaliana) (UniProt P46077)
T4 sequence: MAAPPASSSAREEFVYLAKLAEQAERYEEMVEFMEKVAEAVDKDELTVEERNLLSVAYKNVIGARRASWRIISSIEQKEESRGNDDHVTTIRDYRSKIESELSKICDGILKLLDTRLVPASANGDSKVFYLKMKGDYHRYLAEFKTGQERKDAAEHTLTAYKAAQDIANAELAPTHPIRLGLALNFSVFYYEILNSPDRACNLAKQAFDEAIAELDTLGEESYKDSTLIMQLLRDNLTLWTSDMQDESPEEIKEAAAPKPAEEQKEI

[6] = target: T5, GRF7 (14-3-3 nu), split YFP fusion (Arabidopsis thaliana) (UniProt Q96300)
T5 sequence: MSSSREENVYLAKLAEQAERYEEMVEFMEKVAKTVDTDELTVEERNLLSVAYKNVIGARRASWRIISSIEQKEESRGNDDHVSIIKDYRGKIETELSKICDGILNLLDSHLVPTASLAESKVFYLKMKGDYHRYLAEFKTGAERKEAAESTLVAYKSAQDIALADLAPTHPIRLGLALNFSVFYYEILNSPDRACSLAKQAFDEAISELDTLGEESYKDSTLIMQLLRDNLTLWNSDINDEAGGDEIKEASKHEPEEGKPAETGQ

[7] = target: T6, MPK3, split YFP fusion (Arabidopsis thaliana) (UniProt Q39023)
T6 sequence: T1 chain

[8] = target: MPK6, split YFP fusion (Arabidopsis thaliana) (UniProt Q39026)
[9] = target: T7, PYL2, split YFP fusion (Arabidopsis thaliana) (UniProt O80992)
T7 sequence: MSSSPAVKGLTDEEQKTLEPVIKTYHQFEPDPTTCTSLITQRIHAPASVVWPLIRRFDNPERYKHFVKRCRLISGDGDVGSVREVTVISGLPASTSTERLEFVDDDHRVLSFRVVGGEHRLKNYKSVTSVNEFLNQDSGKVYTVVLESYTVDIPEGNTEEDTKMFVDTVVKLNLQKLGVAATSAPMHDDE

[10] = target: T8, PYL9, split YFP fusion (Arabidopsis thaliana) (UniProt Q84MC7)
T8 sequence: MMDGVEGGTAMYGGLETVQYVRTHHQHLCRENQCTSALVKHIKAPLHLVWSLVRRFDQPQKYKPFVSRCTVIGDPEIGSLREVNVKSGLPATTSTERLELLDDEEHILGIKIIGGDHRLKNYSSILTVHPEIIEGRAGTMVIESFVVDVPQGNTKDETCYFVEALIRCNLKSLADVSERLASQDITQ

[11] = target: T9, SnRK2.3, split YFP fusion (Arabidopsis thaliana) (UniProt Q39193)
T9 sequence: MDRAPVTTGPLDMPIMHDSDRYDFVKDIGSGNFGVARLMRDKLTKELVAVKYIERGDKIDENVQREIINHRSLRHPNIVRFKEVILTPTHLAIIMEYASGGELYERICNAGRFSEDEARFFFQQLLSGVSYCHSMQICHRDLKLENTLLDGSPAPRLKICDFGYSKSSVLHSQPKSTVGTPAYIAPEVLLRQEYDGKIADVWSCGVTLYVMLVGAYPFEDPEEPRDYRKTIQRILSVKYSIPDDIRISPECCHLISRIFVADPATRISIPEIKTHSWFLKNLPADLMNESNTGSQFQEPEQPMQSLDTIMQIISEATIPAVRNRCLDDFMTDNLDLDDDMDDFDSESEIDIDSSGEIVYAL

[12] = target: T10, SnRK2.6, split YFP fusion (Arabidopsis thaliana) (UniProt Q940H6)
T10 sequence: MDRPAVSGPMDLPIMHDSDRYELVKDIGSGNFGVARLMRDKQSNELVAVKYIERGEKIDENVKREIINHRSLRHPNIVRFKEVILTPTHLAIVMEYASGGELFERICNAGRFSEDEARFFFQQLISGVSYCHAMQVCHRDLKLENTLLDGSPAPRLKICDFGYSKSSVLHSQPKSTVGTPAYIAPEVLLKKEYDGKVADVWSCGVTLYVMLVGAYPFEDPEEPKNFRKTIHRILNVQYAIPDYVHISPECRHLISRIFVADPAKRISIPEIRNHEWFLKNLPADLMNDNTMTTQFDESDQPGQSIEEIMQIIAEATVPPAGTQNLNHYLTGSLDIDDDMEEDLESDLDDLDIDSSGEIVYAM

[13] = target: T11, MPK7, split YFP fusion (Arabidopsis thaliana) (UniProt Q39027)
T11 sequence: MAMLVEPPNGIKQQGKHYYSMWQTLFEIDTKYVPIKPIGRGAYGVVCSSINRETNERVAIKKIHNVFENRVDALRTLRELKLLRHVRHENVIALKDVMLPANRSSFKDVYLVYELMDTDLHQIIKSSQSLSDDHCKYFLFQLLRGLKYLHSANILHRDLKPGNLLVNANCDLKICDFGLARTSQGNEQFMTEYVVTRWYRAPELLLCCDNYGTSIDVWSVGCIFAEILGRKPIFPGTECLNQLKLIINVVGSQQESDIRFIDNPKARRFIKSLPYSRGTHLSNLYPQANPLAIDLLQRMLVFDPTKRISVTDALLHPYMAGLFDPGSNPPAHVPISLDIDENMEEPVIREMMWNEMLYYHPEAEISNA

B1: GRF4 (14-3-3 phi), split YFP fusions, P46077 1-267 (protein)
chain: T4 sequence
binding [1]: binds

B2: AFP1, split YFP fusion (protein, UniProt Q9LQ98 1-345)
chain: MAEANERSKEMARSNSCVFPRDLLQRFISNSVEGEDDDEEEDDDEIELNLGLSLGGRFGVDKSNKLVRSSSVVVTMPLFREDHHHHQAAAMITTKVSTETVAGATRGTGLMRTTSLPAESEEEWRKRKEMQTLRRMAAKRRRSEKLRTGVGGGNSNNPEEAATATASRRRGRPSSGLPRWSATANKSGLLRQHSAGLDSLQVSGESLGGGRAAGSSSSVSELETKASSDEARSLPSTTQPQQETTTKPTNRLRRLSSVDMNMKMEPQGKGKSEMPCVFTKGDGPNGKRVDGILYRYGSGEEVRIMCVCHGDFLSPADFVKHAGGPHVDHPLRHIVVNTSSPSNLL
binding [2]: binds | binding [3]: binds weakly | binding [4]: binds | binding [5]: binds | binding [6]: binds weakly | binding [7]: binds | binding [8]: binds | binding [9]: binds | binding [10]: binds | binding [11]: binds | binding [12]: binds

B3: AFP2, split YFP fusion (protein, UniProt Q9LMX5 1-348)
chain: MGEASRQQRAWNREMTVTTNLSLDIDKYPRDLLRGFMSENGGGRVFHGGETNCDDESTIELNLGLSLGGRFGVDKTPRKLKRSSSVLDTVPFNDSTVAEPENYTVGLERTTSLPAEMEEEWRKRKEMQSLRRMEAKRRRCEKQSFRVGNSDDQTVSFENERWVTASKSGFLQRHLVSSNRQVCGVDSDGGGATGGGSSSSLSELDNKNQQGSSNSCNDERSPKIVAGCSSNSGSQGTERPSVTRANKVNENENEKRVRSEDSVDRKGKGMATSTGLVDMPCVFTKGDGPNGRRVDGILYKYGKGEEVRIMCICHGSFLTPAEFVKHGGGGDVDRPLRHIVVNTSSSTF
binding [2]: binds | binding [3]: binds weakly | binding [4]: binds | binding [5]: binds | binding [7]: binds | binding [8]: binds | binding [13]: binds | binding [9]: binds | binding [10]: binds | binding [11]: binds | binding [12]: binds
